MIC data for one compound are collected here from publication PMC12646458, “Structural characterization of the YbbAP-TesA ABC transporter identifies it as a lipid hydrolase complex that extracts hydrophobic compounds from the bacterial inner membrane” (PLOS Biology, 2025).

Converted amounts (≈) assume the structure as drawn.

One assay has as its system T1, Escherichia coli BW25113.
T1 construct: BW25113
Kind of assay: microbe, parasite or virus in culture. Set-up: antibiotic susceptibility testing of E. coli strains, MIC, median of replicates. The conditions noted are these: read-out: Median MIC. An excerpt:
(§1) Supplementary file pbio.3003427.s003.docx: S3 Table Antibiotic susceptibility testing for TesA and YbbP knockout strains. (DOCX)

The test system of assay [1] is T2, Escherichia coli C43(DE3).
T2 construct: C43(DE3) carrying empty pET28 vector
Kind of assay: microbe, parasite or virus in culture. Set-up: antibiotic susceptibility testing of E. coli strains, MIC, median of replicates. The conditions noted are these: D=+IPTG +Kan, median MIC, empty pET28, IPTG and kanamycin present.
From the text: as §1

Turning to `CC1=C(C(=O)O)N2C(=O)[C@@H](NC(=O)[C@H](N)c3ccccc3)[C@H]2SC1` [Cephalexin], the MIC was found to be 16 µg/mL (≈ 46.1 µM) in the assay on Escherichia coli BW25113 and 8 µg/mL (≈ 23 µM) in assay [1].
